# In publication PMC9785994:
# Chains of the proteins cited; added tags and fusions are not shown. Lines headed by an entry give the natural chain unless they say otherwise; changes in a name come on top.
# UniProt P23443: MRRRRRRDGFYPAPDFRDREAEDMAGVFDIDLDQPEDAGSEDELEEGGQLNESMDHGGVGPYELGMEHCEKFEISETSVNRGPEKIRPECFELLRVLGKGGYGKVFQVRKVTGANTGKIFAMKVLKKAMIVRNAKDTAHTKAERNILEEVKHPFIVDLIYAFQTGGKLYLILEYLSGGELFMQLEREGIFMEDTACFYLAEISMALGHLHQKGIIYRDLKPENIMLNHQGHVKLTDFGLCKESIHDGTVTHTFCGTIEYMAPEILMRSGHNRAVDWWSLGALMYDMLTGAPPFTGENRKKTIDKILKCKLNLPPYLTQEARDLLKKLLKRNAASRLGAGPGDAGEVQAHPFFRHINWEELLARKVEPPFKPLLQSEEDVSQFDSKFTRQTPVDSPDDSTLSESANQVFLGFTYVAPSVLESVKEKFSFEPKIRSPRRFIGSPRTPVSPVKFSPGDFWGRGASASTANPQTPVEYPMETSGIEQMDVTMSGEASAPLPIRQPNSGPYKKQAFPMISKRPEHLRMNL
# UniProt P35222: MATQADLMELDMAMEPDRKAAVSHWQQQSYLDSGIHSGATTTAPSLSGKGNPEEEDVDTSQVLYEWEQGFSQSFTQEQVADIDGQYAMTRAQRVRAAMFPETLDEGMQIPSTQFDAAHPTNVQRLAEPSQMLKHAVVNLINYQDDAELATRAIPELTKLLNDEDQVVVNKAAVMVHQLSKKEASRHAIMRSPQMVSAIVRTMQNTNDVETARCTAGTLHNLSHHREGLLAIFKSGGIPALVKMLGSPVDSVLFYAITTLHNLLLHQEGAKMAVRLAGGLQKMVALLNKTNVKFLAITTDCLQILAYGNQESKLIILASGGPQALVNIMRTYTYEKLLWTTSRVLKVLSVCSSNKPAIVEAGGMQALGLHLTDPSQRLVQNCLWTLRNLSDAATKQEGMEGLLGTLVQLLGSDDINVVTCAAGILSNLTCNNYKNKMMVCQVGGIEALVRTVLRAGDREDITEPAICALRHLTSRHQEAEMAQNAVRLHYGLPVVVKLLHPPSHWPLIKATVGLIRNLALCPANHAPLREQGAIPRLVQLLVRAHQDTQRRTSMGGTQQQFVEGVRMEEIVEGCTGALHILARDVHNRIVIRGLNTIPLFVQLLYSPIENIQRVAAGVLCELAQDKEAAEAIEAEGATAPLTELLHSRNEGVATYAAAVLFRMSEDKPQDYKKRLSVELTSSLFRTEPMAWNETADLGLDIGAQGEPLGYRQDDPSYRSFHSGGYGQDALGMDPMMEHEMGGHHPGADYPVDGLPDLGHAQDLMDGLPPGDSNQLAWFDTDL
# No constants are given. Whether binding was seen depends on the method and setting. In cells and extracts the contact can be indirect. A result given as binding can be weak or reduced; the word gives no strength.
# How the values were obtained:
# [1] = target: Flag-tagged dominant-negative S6K1 (S6K1-DN) (human) (UniProt P23443); test: co-IP; 293T cells expressing Flag-tagged WT, CA and DN forms of S6K1, treated with LiCl (25 mM) for 8 h; immunoprecipitation with Flag antibody
# [2] = target: Flag-tagged constitutively active S6K1 (S6K1-CA) (human) (UniProt P23443); test: as above
substance,measurement,setting,value
"β-catenin, endogenous in 293T cells (from UniProt P35222 1-781)",binding,[1],binds
same,binding,[2],binds
